The values below come from publication doi:10.1101/2025.07.18.665585.

Sequences of proteins named here, by UniProt entry; tags and fusion partners are left off. A line that says so, or that is headed by a name, gives the form on record, which may keep a tag or linker. Residues count along the entry.
FLAG-tagged SUZ12 RIF truncation (Q15022, residues 427-739): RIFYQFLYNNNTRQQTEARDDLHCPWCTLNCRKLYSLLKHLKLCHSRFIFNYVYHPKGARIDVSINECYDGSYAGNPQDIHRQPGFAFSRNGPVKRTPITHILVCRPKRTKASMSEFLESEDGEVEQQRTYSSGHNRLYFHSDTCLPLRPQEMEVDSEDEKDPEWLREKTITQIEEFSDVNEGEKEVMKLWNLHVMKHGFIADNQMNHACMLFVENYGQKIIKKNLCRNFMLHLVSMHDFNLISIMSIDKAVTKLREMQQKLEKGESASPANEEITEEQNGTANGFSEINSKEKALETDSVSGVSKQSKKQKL
FLAG-tagged SUZ12 NEC truncation (Q15022, residues 492-739): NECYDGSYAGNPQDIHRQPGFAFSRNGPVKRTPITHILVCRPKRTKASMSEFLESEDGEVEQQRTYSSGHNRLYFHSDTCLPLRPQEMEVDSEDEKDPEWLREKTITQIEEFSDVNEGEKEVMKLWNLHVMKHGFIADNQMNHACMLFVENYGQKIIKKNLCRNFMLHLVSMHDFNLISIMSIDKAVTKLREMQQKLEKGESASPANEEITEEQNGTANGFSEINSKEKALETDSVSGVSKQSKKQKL
UniProt Q9Y483: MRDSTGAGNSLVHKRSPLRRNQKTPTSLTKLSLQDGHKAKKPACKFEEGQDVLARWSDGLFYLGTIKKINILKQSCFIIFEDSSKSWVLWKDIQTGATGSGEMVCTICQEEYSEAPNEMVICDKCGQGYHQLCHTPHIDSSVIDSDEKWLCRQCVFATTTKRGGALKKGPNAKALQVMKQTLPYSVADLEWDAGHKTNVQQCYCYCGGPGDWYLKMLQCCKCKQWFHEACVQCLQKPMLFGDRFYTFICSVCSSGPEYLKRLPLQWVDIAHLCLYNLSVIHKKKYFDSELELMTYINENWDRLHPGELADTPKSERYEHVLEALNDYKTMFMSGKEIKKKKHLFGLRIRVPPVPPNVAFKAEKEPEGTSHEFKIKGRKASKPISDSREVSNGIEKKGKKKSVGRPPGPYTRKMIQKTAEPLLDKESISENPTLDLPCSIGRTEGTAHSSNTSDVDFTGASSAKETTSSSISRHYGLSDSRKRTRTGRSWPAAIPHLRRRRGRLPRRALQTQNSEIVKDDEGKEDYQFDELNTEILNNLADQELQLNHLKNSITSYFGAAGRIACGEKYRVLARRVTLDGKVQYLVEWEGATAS

No constants are given. Whether binding was seen depends on the method and setting. In cells and extracts the contact can be indirect.

For experiment [1], the target named is FLAG-tagged SUZ12 RIF truncation (UniProt Q15022). Description: co-IP.
The target of experiment [2] is FLAG-tagged SUZ12 NEC truncation (UniProt Q15022). Description: co-IP.

Turning to MTF2 (from UniProt Q9Y483 1-593), the binding result in experiment [1] and in experiment [2] was “no binding” throughout.
